# Data as given in the supplement of paper PMC8728848.
# The other results are listed elsewhere or left out.
# Assays:
# Assay in all cases: glycan array binding signal (z-score within array); higher = stronger binding
# Conditions in all cases: glycan notation: IUPAC condensed, linker removed
# [1] = molecular target: Neu5Ac(a2-6)Gal(b1-4)GlcNAc(b1-2)Man(a1-3)[GlcNAc(b1-2)Man(a1-6)]Man(b1-4)GlcNAc(b1-4)GlcNAc
# How it was run: (§1)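 From the Consortium for Functional Glycomics database, 3228 arrays were curated, keeping only those whose protein sequence was available. Binding is given as a within-array Z-score averaged across arrays sharing a protein sequence and across linkers. Negative Z-scores can be read as non-binding.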
# [2] = molecular target: Neu5Ac(a2-6)Gal(b1-4)GlcNAc(b1-2)Man(a1-3)[GlcNAc(b1-2)Man(b1-4)GlcNAc(b1-2)Man(a1-6)]Man(b1-4)GlcNAc(b1-4)GlcNAc
# How it was run: as §1
# [3] = molecular target: Neu5Ac(a2-6)Gal(b1-4)GlcNAc(b1-2)Man(a1-3)[Man(a1-6)]Man(b1-4)GlcNAc(b1-4)GlcNAc
# How it was run: as §1
# [4] = molecular target: Neu5Ac(a2-6)Gal(b1-4)GlcNAc(b1-2)Man(a1-3)[Neu5Ac(a2-6)Gal(b1-4)GlcNAc(b1-2)Man(a1-6)]Man(b1-4)GlcNAc(b1-4)GlcNAc
# How it was run: as §1
# [5] = molecular target: Neu5Ac(a2-6)Gal(b1-4)GlcNAc(b1-2)Man(a1-6)Man(b1-4)GlcNAc(b1-4)GlcNAc
# How it was run: as §1
# [6] = molecular target: Neu5Ac(a2-6)Gal(b1-4)GlcNAc(b1-2)Man(a1-6)[Gal(b1-4)GlcNAc(b1-2)Man(a1-3)]Man(b1-4)GlcNAc(b1-4)GlcNAc
# How it was run: as §1
# [7] = molecular target: Neu5Ac(a2-6)Gal(b1-4)GlcNAc(b1-2)Man(a1-6)[GlcNAc(b1-2)Man(a1-3)]Man(b1-4)GlcNAc(b1-4)GlcNAc
# How it was run: as §1
# [8] = molecular target: Neu5Ac(a2-6)Gal(b1-4)GlcNAc(b1-2)Man(a1-6)[Man(a1-3)]Man(b1-4)GlcNAc(b1-4)GlcNAc
# How it was run: as §1
# [9] = molecular target: Neu5Ac(a2-6)Gal(b1-4)GlcNAc(b1-3)Gal(b1-3)GlcNAc
# How it was run: as §1
# [10] = molecular target: Neu5Ac(a2-6)Gal(b1-4)GlcNAc(b1-3)Gal(b1-4)GlcNAc
# How it was run: as §1
# [11] = molecular target: Neu5Ac(a2-6)Gal(b1-4)GlcNAc(b1-3)Gal(b1-4)GlcNAc(b1-3)Gal(b1-4)GlcNAc
# How it was run: as §1
# [12] = molecular target: Neu5Ac(a2-6)Gal(b1-4)GlcNAc(b1-3)Gal(b1-4)[Fuc(a1-3)]GlcNAc(b1-3)Gal(b1-4)[Fuc(a1-3)]GlcNAc
# How it was run: as §1
# [13] = molecular target: Neu5Ac(a2-6)Gal(b1-4)GlcNAc(b1-3)GalNAc
# How it was run: as §1
# [14] = molecular target: Neu5Ac(a2-6)Gal(b1-4)GlcNAc6S
# How it was run: as §1
# [15] = molecular target: Neu5Ac(a2-6)GalNAc
# How it was run: as §1
# [16] = molecular target: Neu5Ac(a2-6)GalNAc(b1-4)GlcNAc
# How it was run: as §1
# [17] = molecular target: Neu5Ac(a2-6)GlcNAc(b1-4)GlcNAc
# How it was run: as §1
# [18] = molecular target: Neu5Ac(a2-6)GlcNAc(b1-4)GlcNAc(b1-4)GlcNAc
# How it was run: as §1
# [19] = molecular target: Neu5Ac(a2-8)Neu5Ac
# How it was run: as §1
# [20] = molecular target: Neu5Ac(a2-8)Neu5Ac(a2-3)Gal(b1-3)GalNAc(b1-4)[Neu5Ac(a2-8)Neu5Ac(a2-3)]Gal(b1-4)Glc
# How it was run: as §1
# [21] = molecular target: Neu5Ac(a2-8)Neu5Ac(a2-3)Gal(b1-4)Glc
# How it was run: as §1
# [22] = molecular target: Neu5Ac(a2-8)Neu5Ac(a2-3)[Gal(b1-3)GalNAc(b1-4)]Gal(b1-4)Glc
# How it was run: as §1
# [23] = molecular target: Neu5Ac(a2-8)Neu5Ac(a2-3)[GalNAc(b1-4)]Gal(b1-4)Glc
# How it was run: as §1
# [24] = molecular target: Neu5Ac(a2-8)Neu5Ac(a2-8)Neu5Ac
# How it was run: as §1
# [25] = molecular target: Neu5Ac(a2-8)Neu5Ac(a2-8)Neu5Ac(a2-3)Gal(b1-4)Glc
# How it was run: as §1
# [26] = molecular target: Neu5Ac(a2-8)Neu5Ac(a2-8)Neu5Ac(a2-3)[GalNAc(b1-4)]Gal(b1-4)Glc
# How it was run: as §1
# [27] = molecular target: Neu5Ac(a2-8)Neu5Ac(a2-8)Neu5Ac(a2-8)Neu5Ac(a2-3)[GalNAc(b1-4)]Gal(b1-4)Glc
# How it was run: as §1
# [28] = molecular target: Neu5Ac(b2-6)Gal(b1-4)GlcNAc
# How it was run: as §1
# [29] = molecular target: Neu5Ac(b2-6)GalNAc
# How it was run: as §1
# [30] = molecular target: Neu5Ac9Ac(a2-3)Gal(b1-3)GlcNAc
# How it was run: as §1
# [31] = molecular target: Neu5Ac9Ac(a2-3)Gal(b1-4)GlcNAc
# How it was run: as §1
# [32] = molecular target: Neu5Ac9Ac(a2-6)Gal(b1-4)GlcNAc
# How it was run: as §1
# [33] = molecular target: Neu5Gc(a2-3)Gal(b1-3)GlcNAc
# How it was run: as §1
# [34] = molecular target: Neu5Gc(a2-3)Gal(b1-3)[Fuc(a1-4)]GlcNAc
# How it was run: as §1
# [35] = molecular target: Neu5Gc(a2-3)Gal(b1-4)Glc
# How it was run: as §1
# [36] = molecular target: Neu5Gc(a2-3)Gal(b1-4)GlcNAc
# How it was run: as §1
# [37] = molecular target: Neu5Gc(a2-3)Gal(b1-4)[Fuc(a1-3)]GlcNAc
# How it was run: as §1
# [38] = molecular target: Neu5Gc(a2-6)Gal(b1-4)GlcNAc
# How it was run: as §1
# [39] = molecular target: Neu5Gc(a2-6)GalNAc
# How it was run: as §1
# [40] = molecular target: Neu5Gc(b2-6)Gal(b1-4)GlcNAc
# How it was run: as §1
binder,measurement,setting,value
"MFG-E8 (Homo sapiens), Q08431 (protein) MPRPRLLAALCGALLCAPSLLVALDICSKNPCHNGGLCEEISQEVRGDVFPSYTCTCLKGYAGNHCETKCVEPLGLENGNIANSQIAASSVRVTFLGLQHWVPELARLNRAGMVNAWTPSSNDDNPWIQVNLLRRMWVTGVVTQGASRLASHEYLKAFKVAYSLNGHEFDFIHDVNKKHKEFVGNWNKNAVHVNLFETPVEAQYVRLYPTSCHTACTLRFELLGCELNGCANPLGLKNNSIPDKQITASSSYKTWGLHLFSWNPSYARLDKQGNFNAWVAGSYGNDQWLQVDLGSSKEVTGIITQGARNFGSVQFVASYKVAYSNDSANWTEYQDPRTGSSKIFPGNWDNHSHKKNLFETPILARYVRILPVAWHNRIALRLELLGC",glycan array binding signal (z-score),[1],1.68
same,glycan array binding signal (z-score),[2],1.69
same,glycan array binding signal (z-score),[3],1.41
same,glycan array binding signal (z-score),[4],1.09
same,glycan array binding signal (z-score),[5],-0.427
same,glycan array binding signal (z-score),[6],0.119
same,glycan array binding signal (z-score),[7],0.049
same,glycan array binding signal (z-score),[8],-0.067
same,glycan array binding signal (z-score),[9],-0.432
same,glycan array binding signal (z-score),[10],0.298
same,glycan array binding signal (z-score),[11],-0.226
same,glycan array binding signal (z-score),[12],-0.74
same,glycan array binding signal (z-score),[13],1.82
same,glycan array binding signal (z-score),[14],-0.048
same,glycan array binding signal (z-score),[15],-0.082
same,glycan array binding signal (z-score),[16],-0.42
same,glycan array binding signal (z-score),[17],-0.619
same,glycan array binding signal (z-score),[18],-0.21
same,glycan array binding signal (z-score),[19],0.218
same,glycan array binding signal (z-score),[20],-0.776
same,glycan array binding signal (z-score),[21],0.83
same,glycan array binding signal (z-score),[22],-0.532
same,glycan array binding signal (z-score),[23],0.445
same,glycan array binding signal (z-score),[24],0.328
same,glycan array binding signal (z-score),[25],-0.286
same,glycan array binding signal (z-score),[26],1.06
same,glycan array binding signal (z-score),[27],-0.155
same,glycan array binding signal (z-score),[28],-0.205
same,glycan array binding signal (z-score),[29],1.84
same,glycan array binding signal (z-score),[30],-0.732
same,glycan array binding signal (z-score),[31],-0.402
same,glycan array binding signal (z-score),[32],0.932
same,glycan array binding signal (z-score),[33],-0.636
same,glycan array binding signal (z-score),[34],0.135
same,glycan array binding signal (z-score),[35],-0.361
same,glycan array binding signal (z-score),[36],1
same,glycan array binding signal (z-score),[37],-0.483
same,glycan array binding signal (z-score),[38],-0.196
same,glycan array binding signal (z-score),[39],1.08
same,glycan array binding signal (z-score),[40],-0.408

# An excerpt of the results above, for reference:
binder,measurement,setting,value
"MFG-E8 (Homo sapiens), Q08431 (protein) MPRPRLLAALCGALLCAPSLLVALDICSKNPCHNGGLCEEISQEVRGDVFPSYTCTCLKGYAGNHCETKCVEPLGLENGNIANSQIAASSVRVTFLGLQHWVPELARLNRAGMVNAWTPSSNDDNPWIQVNLLRRMWVTGVVTQGASRLASHEYLKAFKVAYSLNGHEFDFIHDVNKKHKEFVGNWNKNAVHVNLFETPVEAQYVRLYPTSCHTACTLRFELLGCELNGCANPLGLKNNSIPDKQITASSSYKTWGLHLFSWNPSYARLDKQGNFNAWVAGSYGNDQWLQVDLGSSKEVTGIITQGARNFGSVQFVASYKVAYSNDSANWTEYQDPRTGSSKIFPGNWDNHSHKKNLFETPILARYVRILPVAWHNRIALRLELLGC",glycan array binding signal (z-score),[8],-0.067
same,glycan array binding signal (z-score),[9],-0.432
same,glycan array binding signal (z-score),[10],0.298
